Experimental data reported in patent US20250145665A1, “MACROCYCLIC PEPTIDES USEFUL AS MODULATORS OF TNF ALPHA” (Bristol-Myers Squibb Company, priority 2023, published 2025).
Some of these results come from one statement about several compounds together. Starred links: 1 amine or outer side, 2 acyl side, 3 side chain; linkers in the order of their positions; H or OH if unused. Positions of bridges follow the written chain, without caps; N, C: chain ends. Non-standard residues stand in square brackets, D forms with d. Residues, ends and D or L forms follow the SMILES beside them. Bip(4'-NHAc) = CC(=O)Nc1ccc(-c2ccc(C[C@H](N)C(=O)O)cc2)cc1; Ala(morpholin-4-yl) = N[C@@H](CN1CCOCC1)C(=O)O; Phe(3-CONH2) = NC(=O)c1cccc(C[C@H](N)C(=O)O)c1; X59 = O=C([C@H](Cc1c(F)cc(F)cc1F)N[*:1])[*:2]; Phe(4-CH2NH2) = NCc1ccc(C[C@H](N)C(=O)O)cc1; Bip = N[C@@H](Cc1ccc(-c2ccccc2)cc1)C(=O)O; Phe(4-F) = N[C@@H](Cc1ccc(F)cc1)C(=O)O; Val(3-OH) = CC(C)(O)[C@H](N)C(=O)O; h4Pal = N[C@@H](CCc1ccncc1)C(=O)O; 2Pal = N[C@@H](Cc1ccccn1)C(=O)O; 3Pal = N[C@@H](Cc1cccnc1)C(=O)O; 4Pal = N[C@@H](Cc1ccncc1)C(=O)O; hLeu = CC(C)CC[C@H](N)C(=O)O; Hpra = C#CCC[C@H](N)C(=O)O; Sar = CNCC(=O)O

Sequences of proteins named here, by UniProt entry; tags and fusion partners are left off. Residues count along the entry.
UniProt P01375, 77-233 limits assumed: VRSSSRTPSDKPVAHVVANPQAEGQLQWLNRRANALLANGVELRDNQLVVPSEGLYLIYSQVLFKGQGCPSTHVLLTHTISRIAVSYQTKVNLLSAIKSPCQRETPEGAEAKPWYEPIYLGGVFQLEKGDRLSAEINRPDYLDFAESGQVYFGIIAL

biological target: TNFα (Homo sapiens, UniProt P01375); assay: TNF-Induced HEK-Blue Assay; assay type: cell-based; conditions: summary statement for all examples; read-out: IC50 values measured in the TNF induced HEK-Blue assay

IC50, ≤ 25 µM:
CC(C)C[C@@H]1NC(=O)[C@H](CCCNC(=N)N)NC(=O)[C@H](C(C)C)NC(=O)[C@@H]2CCCN2C(=O)[C@H](Cc2ccc(CN)cc2)NC(=O)[C@H](CCCNC(=N)N)NC(=O)[C@H](CC(=O)O)NC(=O)[C@@H]2CCCN2C(=O)CN(C)C(=O)[C@H](Cc2ccc(-c3ccccc3)cc2)NC(=O)[C@H](Cc2ccc(-c3ccccc3)cc2)NC(=O)[C@H](Cc2ccccc2)NC(=O)CSC[C@@H](C(=O)NCC(N)=O)NC1=O [Example 22] ({CH2CO}-F[Bip][Bip][Sar]PDR[Phe(4-CH2NH2)]PVRLCG-NH2; thioether N-13), CC(C)C[C@@H]1NC(=O)[C@H](CCCNC(=N)N)NC(=O)[C@H](C(C)C)NC(=O)[C@@H]2CCCN2C(=O)[C@H](Cc2ccc(F)cc2)NC(=O)[C@H](CCCNC(=N)N)NC(=O)[C@H](CC(=O)O)NC(=O)[C@@H]2CCCN2C(=O)CN(C)C(=O)[C@H](Cc2ccc(-c3ccccc3)cc2)NC(=O)[C@H](Cc2ccc(-c3ccccc3)cc2)NC(=O)[C@H](Cc2ccccc2)NC(=O)CSC[C@@H](C(=O)NCC(N)=O)NC1=O [Example 23] ({CH2CO}-F[Bip][Bip][Sar]PDR[Phe(4-F)]PVRLCG-NH2; thioether N-13), CC(C)C[C@@H]1NC(=O)[C@H](CCCNC(=N)N)NC(=O)[C@H](C(C)C)NC(=O)[C@@H]2CCCN2C(=O)[C@H](CCc2ccncc2)NC(=O)[C@H](CCCNC(=N)N)NC(=O)[C@H](CC(=O)O)NC(=O)[C@@H]2CCCN2C(=O)CN(C)C(=O)[C@H](Cc2ccc(-c3ccccc3)cc2)NC(=O)[C@H](Cc2ccc(-c3ccccc3)cc2)NC(=O)[C@H](Cc2ccccc2)NC(=O)CSC[C@@H](C(=O)NCC(N)=O)NC1=O [Example 24] ({CH2CO}-F[Bip][Bip][Sar]PDR[h4Pal]PVRLCG-NH2; thioether N-13), CC(C)C[C@@H]1NC(=O)[C@H](CCCNC(=N)N)NC(=O)[C@H](C(C)C)NC(=O)[C@@H]2CCCN2C(=O)[C@H](Cc2ccncc2)NC(=O)[C@H](CCCNC(=N)N)NC(=O)[C@H](CC(=O)O)NC(=O)[C@@H]2CCCN2C(=O)CN(C)C(=O)[C@H](Cc2ccc(-c3ccccc3)cc2)NC(=O)[C@H](Cc2ccc(-c3ccccc3)cc2)NC(=O)[C@H](Cc2ccccc2)NC(=O)CSC[C@@H](C(=O)NCC(N)=O)NC1=O [Example 25] ({CH2CO}-F[Bip][Bip][Sar]PDR[4Pal]PVRLCG-NH2; thioether N-13), CC(C)C[C@@H]1NC(=O)[C@H](CCCNC(=N)N)NC(=O)[C@H](C(C)C)NC(=O)[C@@H]2CCCN2C(=O)[C@H](Cc2cccnc2)NC(=O)[C@H](CCCNC(=N)N)NC(=O)[C@H](CC(=O)O)NC(=O)[C@@H]2CCCN2C(=O)CN(C)C(=O)[C@H](Cc2ccc(-c3ccccc3)cc2)NC(=O)[C@H](Cc2ccc(-c3ccccc3)cc2)NC(=O)[C@H](Cc2ccccc2)NC(=O)CSC[C@@H](C(=O)NCC(N)=O)NC1=O [Example 26] ({CH2CO}-F[Bip][Bip][Sar]PDR[3Pal]PVRLCG-NH2; thioether N-13), CC(C)C[C@@H]1NC(=O)[C@H](CCCNC(=N)N)NC(=O)[C@H](C(C)C)NC(=O)[C@@H]2CCCN2C(=O)[C@H](C(C)C)NC(=O)[C@H](CCCNC(=N)N)NC(=O)[C@H](CC(=O)O)NC(=O)[C@@H]2CCCN2C(=O)CN(C)C(=O)[C@H](Cc2ccc(-c3ccccc3)cc2)NC(=O)[C@H](Cc2ccc(-c3ccccc3)cc2)NC(=O)[C@H](C(C)(C)O)NC(=O)CSC[C@@H](C(=O)NCC(N)=O)NC1=O [Example 27] ({CH2CO}-[Val(3-OH)][Bip][Bip][Sar]PDRVPVRLCG-NH2; thioether N-13), CC(C)CC[C@@H]1NC(=O)CSC[C@@H](C(=O)NCC(N)=O)NC(=O)[C@H](CC(C)C)NC(=O)[C@H](CCCNC(=N)N)NC(=O)[C@H](C(C)C)NC(=O)[C@@H]2CCCN2C(=O)[C@H](C(C)C)NC(=O)[C@H](CCCNC(=N)N)NC(=O)[C@H](CC(=O)O)NC(=O)[C@@H]2CCCN2C(=O)CN(C)C(=O)[C@H](Cc2ccc(-c3ccccc3)cc2)NC(=O)[C@H](Cc2ccc(-c3ccccc3)cc2)NC1=O [Example 28] ({CH2CO}-[hLeu][Bip][Bip][Sar]PDRVPVRLCG-NH2; thioether N-13), CC(C)C[C@@H]1NC(=O)[C@H](CCCNC(=N)N)NC(=O)[C@H](C(C)C)NC(=O)[C@@H]2CCCN2C(=O)[C@H](C(C)C)NC(=O)[C@H](CCCNC(=N)N)NC(=O)[C@H](CC(=O)O)NC(=O)[C@@H]2CCCN2C(=O)CN(C)C(=O)[C@H](Cc2ccc(-c3ccccc3)cc2)NC(=O)[C@H](Cc2ccc(-c3ccccc3)cc2)NC(=O)[C@H](Cc2cccnc2)NC(=O)CSC[C@@H](C(=O)NCC(N)=O)NC1=O [Example 29] ({CH2CO}-[3Pal][Bip][Bip][Sar]PDRVPVRLCG-NH2; thioether N-13), CC(C)C[C@@H]1NC(=O)[C@H](CCCNC(=N)N)NC(=O)[C@H](C(C)C)NC(=O)[C@@H]2CCCN2C(=O)[C@H](C(C)C)NC(=O)[C@H](CCCNC(=N)N)NC(=O)[C@H](CC(=O)O)NC(=O)[C@@H]2CCCN2C(=O)CN(C)C(=O)[C@H](Cc2ccc(-c3ccccc3)cc2)NC(=O)[C@H](Cc2ccc(-c3ccccc3)cc2)NC(=O)[C@H](Cc2ccccn2)NC(=O)CSC[C@@H](C(=O)NCC(N)=O)NC1=O [Example 30] ({CH2CO}-[2Pal][Bip][Bip][Sar]PDRVPVRLCG-NH2; thioether N-13), CC(C)C[C@@H]1NC(=O)[C@H](CCCNC(=N)N)NC(=O)[C@H](C(C)C)NC(=O)[C@@H]2CCCN2C(=O)[C@H](C(C)C)NC(=O)[C@H](CCCNC(=N)N)NC(=O)[C@H](CC(=O)O)NC(=O)[C@@H]2CCCN2C(=O)CN(C)C(=O)[C@H](Cc2ccc(-c3ccccc3)cc2)NC(=O)[C@H](Cc2ccc(-c3ccccc3)cc2)NC(=O)[C@H](Cc2c(F)cc(F)cc2F)NC(=O)CSC[C@@H](C(=O)NCC(N)=O)NC1=O [Example 31] ({CH2CO}-[X59][Bip][Bip][Sar]PDRVPVRLCG-NH2; thioether N-13), CC(C)C[C@@H]1NC(=O)[C@H](CCCNC(=N)N)NC(=O)[C@H](C(C)C)NC(=O)[C@@H]2CCCN2C(=O)[C@H](C(C)C)NC(=O)[C@H](CCCNC(=N)N)NC(=O)[C@H](CC(=O)O)NC(=O)[C@@H]2CCCN2C(=O)CN(C)C(=O)[C@H](Cc2ccc(-c3ccccc3)cc2)NC(=O)[C@H](Cc2ccc(-c3ccccc3)cc2)NC(=O)[C@H](CN2CCOCC2)NC(=O)CSC[C@@H](C(=O)NCC(N)=O)NC1=O [Example 32] ({CH2CO}-[Ala(morpholin-4-yl)][Bip][Bip][Sar]PDRVPVRLCG-NH2; thioether N-13), C#CCC[C@@H]1NC(=O)[C@H](CCCNC(=N)N)NC(=O)[C@H](CC(=O)O)NC(=O)[C@@H]2CCCN2C(=O)CN(C)C(=O)[C@H](Cc2ccc(-c3ccccc3)cc2)NC(=O)[C@H](Cc2ccc(-c3ccccc3)cc2)NC(=O)[C@H](Cc2ccccc2)NC(=O)CSC[C@@H](C(=O)NCC(N)=O)NC(=O)[C@H](CC(C)C)NC(=O)[C@H](CCCNC(=N)N)NC(=O)[C@H](C(C)C)NC(=O)[C@@H]2CCCN2C1=O [Example 33] ({CH2CO}-F[Bip][Bip][Sar]PDR[Hpra]PVRLCG-NH2; thioether N-13), CC(C)C[C@@H]1NC(=O)[C@H](Cc2ccccn2)NC(=O)[C@H](C(C)C)NC(=O)[C@@H]2CCCN2C(=O)[C@H](C(C)C)NC(=O)[C@H](CCCNC(=N)N)NC(=O)[C@H](CC(=O)O)NC(=O)[C@@H]2CCCN2C(=O)CN(C)C(=O)[C@H](Cc2ccc(-c3ccccc3)cc2)NC(=O)[C@H](Cc2ccc(-c3ccccc3)cc2)NC(=O)[C@H](Cc2ccccc2)NC(=O)CSC[C@@H](C(=O)NCC(N)=O)NC1=O [Example 34] ({CH2CO}-F[Bip][Bip][Sar]PDRVPV[2Pal]LCG-NH2; thioether N-13), CC(C)C[C@@H]1NC(=O)[C@H](CCCNC(=N)N)NC(=O)[C@H](C(C)C)NC(=O)[C@@H]2CCCN2C(=O)[C@H](C(C)C)NC(=O)[C@H](CCCNC(=N)N)NC(=O)[C@H](CC(=O)O)NC(=O)[C@@H]2CCCN2C(=O)CN(C)C(=O)[C@H](Cc2ccc(-c3ccccc3)cc2)NC(=O)[C@H](Cc2ccc(-c3ccccc3)cc2)NC(=O)[C@H](Cc2cccc(C(N)=O)c2)NC(=O)CSC[C@@H](C(=O)NCC(N)=O)NC1=O [Example 35] ({CH2CO}-[Phe(3-CONH2)][Bip][Bip][Sar]PDRVPVRLCG-NH2; thioether N-13), CC(C)C[C@@H]1NC(=O)[C@H](Cc2ccc(CN)cc2)NC(=O)[C@H](C(C)C)NC(=O)[C@@H]2CCCN2C(=O)[C@H](C(C)C)NC(=O)[C@H](CCCNC(=N)N)NC(=O)[C@H](CC(=O)O)NC(=O)[C@@H]2CCCN2C(=O)CN(C)C(=O)[C@H](Cc2ccc(-c3ccccc3)cc2)NC(=O)[C@H](Cc2ccc(-c3ccccc3)cc2)NC(=O)[C@H](Cc2ccccc2)NC(=O)CSC[C@@H](C(=O)NCC(N)=O)NC1=O [Example 36] ({CH2CO}-F[Bip][Bip][Sar]PDRVPV[Phe(4-CH2NH2)]LCG-NH2; thioether N-13), CC(=O)Nc1ccc(-c2ccc(C[C@@H]3NC(=O)[C@H](Cc4ccc(-c5ccccc5)cc4)NC(=O)[C@H](Cc4ccccc4)NC(=O)CSC[C@@H](C(=O)NCC(N)=O)NC(=O)[C@H](CC(C)C)NC(=O)[C@H](CCCNC(=N)N)NC(=O)[C@H](C(C)C)NC(=O)[C@@H]4CCCN4C(=O)[C@H](C(C)C)NC(=O)[C@H](CCCNC(=N)N)NC(=O)[C@H](CC(=O)O)NC(=O)[C@@H]4CCCN4C(=O)CN(C)C3=O)cc2)cc1 [Example 37] ({CH2CO}-F[Bip][Bip(4'-NHAc)][Sar]PDRVPVRLCG-NH2; thioether N-13), CC(=O)Nc1ccc(-c2ccc(C[C@@H]3NC(=O)[C@H](Cc4ccccc4)NC(=O)CSC[C@@H](C(=O)NCC(N)=O)NC(=O)[C@H](CC(C)C)NC(=O)[C@H](CCCNC(=N)N)NC(=O)[C@H](C(C)C)NC(=O)[C@@H]4CCCN4C(=O)[C@H](C(C)C)NC(=O)[C@H](CCCNC(=N)N)NC(=O)[C@H](CC(=O)O)NC(=O)[C@@H]4CCCN4C(=O)CN(C)C(=O)[C@H](Cc4ccc(-c5ccccc5)cc4)NC3=O)cc2)cc1 [Example 38] ({CH2CO}-F[Bip(4'-NHAc)][Bip][Sar]PDRVPVRLCG-NH2; thioether N-13)
